According to PMC3466176:
No constants are given. Whether binding was seen depends on the method and setting. In cells and extracts the contact can be indirect. Some entries that bind do so weakly or less than the wild type.

Chains of the proteins cited; added tags and fusions are not shown.
UniProt O48661: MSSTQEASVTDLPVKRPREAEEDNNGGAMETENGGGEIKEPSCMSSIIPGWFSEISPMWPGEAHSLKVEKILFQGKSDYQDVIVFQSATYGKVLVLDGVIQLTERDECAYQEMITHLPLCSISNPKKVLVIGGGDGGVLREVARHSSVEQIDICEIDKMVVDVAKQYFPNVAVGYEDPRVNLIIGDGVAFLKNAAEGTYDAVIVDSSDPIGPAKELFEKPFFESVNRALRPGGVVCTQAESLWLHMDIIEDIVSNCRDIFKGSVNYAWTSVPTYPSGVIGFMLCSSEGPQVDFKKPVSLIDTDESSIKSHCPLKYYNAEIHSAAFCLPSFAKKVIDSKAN
UniProt Q94BN2: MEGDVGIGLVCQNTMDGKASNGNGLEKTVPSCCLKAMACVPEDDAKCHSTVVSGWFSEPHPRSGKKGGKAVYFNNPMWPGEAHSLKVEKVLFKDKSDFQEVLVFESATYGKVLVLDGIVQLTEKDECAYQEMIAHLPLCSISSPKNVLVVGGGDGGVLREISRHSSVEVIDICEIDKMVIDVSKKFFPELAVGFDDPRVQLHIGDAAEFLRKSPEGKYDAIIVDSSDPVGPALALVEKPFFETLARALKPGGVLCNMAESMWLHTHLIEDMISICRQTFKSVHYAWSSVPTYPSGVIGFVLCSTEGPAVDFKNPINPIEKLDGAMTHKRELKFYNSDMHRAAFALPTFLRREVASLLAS
UniProt Q9ZUB3: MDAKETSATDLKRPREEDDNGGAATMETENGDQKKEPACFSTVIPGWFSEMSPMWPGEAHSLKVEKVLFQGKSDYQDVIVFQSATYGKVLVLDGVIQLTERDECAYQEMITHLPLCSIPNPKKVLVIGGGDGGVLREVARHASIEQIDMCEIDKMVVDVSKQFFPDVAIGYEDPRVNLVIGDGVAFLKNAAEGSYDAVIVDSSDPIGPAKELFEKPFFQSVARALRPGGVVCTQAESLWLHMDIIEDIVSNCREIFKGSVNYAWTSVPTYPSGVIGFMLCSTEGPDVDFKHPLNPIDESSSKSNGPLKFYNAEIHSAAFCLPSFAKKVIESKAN

Columns and labels:
Assay in all cases: split reporter; BiFC with YFP fragments 1-154 (pYFN43) and 154-240 (pYFC43); Agrobacterium co-infiltration with p19 into N. benthamiana leaves; epidermal cells viewed by confocal microscopy 3-4 days after infiltration
[1] = target: spermidine synthase 2 (SPDS2), BiFC fusion in pYFC43 (Arabidopsis thaliana) (UniProt O48661)
[2] = target: spermine synthase (SPMS), BiFC fusion in pYFN43 / pYFC43 (Arabidopsis thaliana) (UniProt Q94BN2)
[3] = target: spermidine synthase 1 (SPDS1), BiFC fusion in pYFN43 / pYFC43 (Arabidopsis thaliana) (UniProt Q9ZUB3)

| binding [1] | binding [2] | binding [3] | Substance |
| --- | --- | --- | --- |
| binds | binds | binds | spermidine synthase 1 (SPDS1), BiFC fusion in pYFN43 / pYFC43 (from UniProt Q9ZUB3 1-334) (enzyme) |
|  | binds |  | spermidine synthase 2 (SPDS2), BiFC fusion in pYFC43 (from UniProt O48661 1-340) (enzyme) |
|  | binds |  | spermine synthase (SPMS), BiFC fusion in pYFN43 / pYFC43 (from UniProt Q94BN2 1-359) (enzyme) |
